Measured values taken from publication PMC1769425.
These are yes or no findings as the source states them, for the method shown. Some binding calls cover weakened binding; strength is not graded here. Sequences can lack the tags named with a protein.

Sequences of proteins named here, by UniProt entry; tags and fusion partners are left off.
UniProt P70039: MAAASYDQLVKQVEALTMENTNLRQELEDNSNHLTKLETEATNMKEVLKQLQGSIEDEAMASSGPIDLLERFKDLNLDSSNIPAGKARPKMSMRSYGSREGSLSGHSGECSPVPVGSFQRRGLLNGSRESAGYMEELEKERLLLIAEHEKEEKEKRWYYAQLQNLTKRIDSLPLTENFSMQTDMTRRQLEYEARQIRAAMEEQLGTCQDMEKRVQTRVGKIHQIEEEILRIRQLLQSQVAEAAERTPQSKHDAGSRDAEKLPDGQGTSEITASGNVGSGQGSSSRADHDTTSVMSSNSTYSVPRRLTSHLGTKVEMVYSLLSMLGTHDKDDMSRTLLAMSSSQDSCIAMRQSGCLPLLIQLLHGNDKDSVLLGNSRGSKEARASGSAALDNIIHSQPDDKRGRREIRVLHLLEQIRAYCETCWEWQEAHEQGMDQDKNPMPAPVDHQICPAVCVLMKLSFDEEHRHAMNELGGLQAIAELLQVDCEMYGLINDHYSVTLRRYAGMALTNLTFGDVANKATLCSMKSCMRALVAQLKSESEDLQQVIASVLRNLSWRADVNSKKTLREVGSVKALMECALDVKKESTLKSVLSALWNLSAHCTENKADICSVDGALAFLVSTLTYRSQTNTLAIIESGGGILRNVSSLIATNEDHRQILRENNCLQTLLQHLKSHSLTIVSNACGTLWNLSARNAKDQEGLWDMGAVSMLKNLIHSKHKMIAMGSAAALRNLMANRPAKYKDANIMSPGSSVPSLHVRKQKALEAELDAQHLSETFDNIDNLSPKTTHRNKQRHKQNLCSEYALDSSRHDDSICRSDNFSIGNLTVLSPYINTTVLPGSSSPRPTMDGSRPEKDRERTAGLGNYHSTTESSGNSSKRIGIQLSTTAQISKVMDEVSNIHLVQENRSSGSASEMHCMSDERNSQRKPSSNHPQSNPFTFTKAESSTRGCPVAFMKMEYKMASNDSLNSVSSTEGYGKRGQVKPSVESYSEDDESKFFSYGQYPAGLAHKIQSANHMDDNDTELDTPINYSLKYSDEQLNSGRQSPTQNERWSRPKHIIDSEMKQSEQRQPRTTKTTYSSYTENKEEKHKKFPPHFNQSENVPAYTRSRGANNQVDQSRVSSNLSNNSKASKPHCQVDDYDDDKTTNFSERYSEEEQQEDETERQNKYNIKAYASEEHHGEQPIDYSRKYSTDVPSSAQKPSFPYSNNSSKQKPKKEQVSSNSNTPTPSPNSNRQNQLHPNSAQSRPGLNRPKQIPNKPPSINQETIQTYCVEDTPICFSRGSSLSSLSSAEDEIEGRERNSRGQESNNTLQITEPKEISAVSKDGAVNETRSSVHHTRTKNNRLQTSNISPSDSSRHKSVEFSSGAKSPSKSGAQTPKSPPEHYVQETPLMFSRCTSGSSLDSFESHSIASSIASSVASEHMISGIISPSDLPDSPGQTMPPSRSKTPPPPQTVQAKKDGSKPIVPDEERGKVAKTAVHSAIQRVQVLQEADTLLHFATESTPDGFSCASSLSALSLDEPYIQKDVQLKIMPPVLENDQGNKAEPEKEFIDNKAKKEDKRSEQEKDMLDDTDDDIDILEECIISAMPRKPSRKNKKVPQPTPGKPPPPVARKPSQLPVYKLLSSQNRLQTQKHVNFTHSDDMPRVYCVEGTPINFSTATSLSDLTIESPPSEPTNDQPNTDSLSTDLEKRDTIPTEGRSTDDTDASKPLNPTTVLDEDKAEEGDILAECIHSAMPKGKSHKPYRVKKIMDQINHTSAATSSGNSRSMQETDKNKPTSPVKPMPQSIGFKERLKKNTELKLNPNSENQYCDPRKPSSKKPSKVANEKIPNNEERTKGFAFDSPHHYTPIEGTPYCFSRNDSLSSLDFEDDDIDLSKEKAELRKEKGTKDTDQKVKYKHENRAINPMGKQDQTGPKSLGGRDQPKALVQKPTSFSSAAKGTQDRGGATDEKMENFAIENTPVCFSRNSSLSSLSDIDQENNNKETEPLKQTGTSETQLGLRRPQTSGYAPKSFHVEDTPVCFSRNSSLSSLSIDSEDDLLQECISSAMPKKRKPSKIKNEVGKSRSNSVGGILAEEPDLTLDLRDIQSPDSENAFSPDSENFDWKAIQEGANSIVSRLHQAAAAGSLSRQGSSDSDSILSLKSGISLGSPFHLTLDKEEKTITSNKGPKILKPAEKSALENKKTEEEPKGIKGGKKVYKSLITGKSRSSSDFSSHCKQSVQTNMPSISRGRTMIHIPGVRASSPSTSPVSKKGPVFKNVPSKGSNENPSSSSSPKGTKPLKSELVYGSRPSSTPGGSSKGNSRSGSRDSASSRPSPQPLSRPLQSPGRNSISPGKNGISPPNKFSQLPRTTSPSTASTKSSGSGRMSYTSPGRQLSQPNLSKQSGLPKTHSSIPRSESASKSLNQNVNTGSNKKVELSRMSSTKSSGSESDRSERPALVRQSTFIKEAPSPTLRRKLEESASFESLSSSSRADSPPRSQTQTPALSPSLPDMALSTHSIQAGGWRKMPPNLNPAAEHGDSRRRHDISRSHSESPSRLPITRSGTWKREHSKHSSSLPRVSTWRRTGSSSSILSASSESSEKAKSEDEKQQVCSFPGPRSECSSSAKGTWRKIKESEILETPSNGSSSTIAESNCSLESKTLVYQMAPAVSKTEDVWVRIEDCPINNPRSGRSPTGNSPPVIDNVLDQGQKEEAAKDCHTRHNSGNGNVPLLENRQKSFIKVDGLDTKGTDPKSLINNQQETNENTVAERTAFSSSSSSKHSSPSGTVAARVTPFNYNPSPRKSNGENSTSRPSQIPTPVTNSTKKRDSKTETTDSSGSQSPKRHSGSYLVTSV

Biological target: full-length APC, endogenous in Xenopus egg extract (X. laevis (endogenous in egg extract)) (UniProt P70039)
Experiment: visual immunoprecipitation (VIP); interphase X. laevis egg extract, pretreated with 40 μM nocodazole; bait (endogenous, or recombinant fragment added to the extract) held on antibody-coated protein-A magnetic beads; fluorescent recombinant prey added at near endogenous concentration (e.g. 500 nM), 15 min at 20 °C; confocal read-out, IgG control beads subtracted; only the binder purified

B1: XKCM1-EGFP (protein, UniProt Q91636 1-730)
chain: MERLVATRLVTGLAVKIMRSNGVIHNANITSVNMDRSSVNVEWKEGEANKGKEISFADVISVNPELLDAVLAPTNVKENMPPQRNVSSQNHKRKTISKIPAPKEVAAKNSLLSESGAQSVLRERSTRMTAIHETLPYENEMEAESTPLPIQQNSVQARSRSTKVSIAEEPRLQTRISEIVEESLPSGRNNQGRRKSNIVKEMEKMKNKREEQRAQNYERRMKRAQDYDTSVPNWEFGKMIKEFRATMDCHRISMADPAEEHRICVCVRKRPLNKQELSKKEIDIISVPSKNIVLVHEPKLKVDLTKYLENQAFRFDFSFDETATNEVVYRFTARPLVQSIFEGGKATCFAYGQTGSGKTHTMGGDFSGKSQNVSKGVYAFASRDVFLLLDQPRYKHLDLDVFVTFFEIYNGKVFDLLNKKTKLRVLEDAKQEVQVVGLLEKQVISADDVFKMIEIGSACRTSGQTFANTSSSRSHACLQIILRRGSKLHGKFSLVDLAGNERGVDTASADRITRMEGAEINRSLLALKECIRALGQNKSHTPFRESKLTQILRDSFIGENSRTCMIAMLSPGFNSCEYTLNTLRYADRVKELSPQNAETNDDNLQMEDSGGSHASIEGLQLQDDFLLKDEELSTHNSFQDALNRVGELEDKAVDELRELVQKEPEWTNLLQMTEQPDYDLENFVMQAEYLIQERSKVLIALGDSINSLRLALQVEEQASKQISKKKRSNK
binding: binds
